# From PubChem BioAssay AID540276 (National Center for Advancing Translational Sciences (NCATS), 2011)
# Screen size: about 300,000 compounds; about 5,400 (1.8%) were called active. Inconclusive results, whose numbers are uncertain, are shown with a selection of clear calls. Calls follow the shape of the full dose curve; tested in HEK293 cells. Where the call is inconclusive, the potency comes from a doubtful curve fit.
# Experiment: qHTS for inhibitors of binding or entry into cells for Marburg Virus
# Settings: Marburg virus pseudotyped entry inhibition, cell reporter; series mostly up to 37.8 µM
# Potency is read from the fitted curve at half-maximal effect.
row,Structure (SMILES),Potency
1,O=[N+]([O-])c1oc2ccc3ccccc3c2c1CCO,"inconclusive: 17.8 µM [inhibitor, single point]"
2,CC(CCc1ccccc1)NC(=S)NC(=O)c1ccco1 (configuration not stated),inactive
3,CN(CCOCCOc1ccc(Cl)cc1Br)Cc1ccccc1,"inconclusive: 12.6 µM [inhibitor, partial curve, poor fit]"
4,CCN(CC)S(=O)(=O)c1cc(C(=O)OCC(=O)NC(=O)c2cccn2C)ccc1C,"inconclusive: 14.1 µM [activator, single point]"
5,O=C1c2ccccc2C(=O)N1CCOc1ccccc1,"inconclusive: 15.8 µM [activator, partial curve, poor fit]"
6,O=C(CN1CCN(Cc2ccccc2Cl)CC1)N/N=C/c1ccco1,inactive
7,Cc1ccc(N(O)C(C)(C)C)cc1,"inconclusive: 35.5 µM [activator, single point]"
8,CCOc1ccc(Br)cc1S(=O)(=O)Nc1ccc(NC(=O)c2ccccc2F)cc1,"inconclusive: 8.91 µM [inhibitor, partial curve, poor fit]"
9,NC(=O)COC(=O)CNC(=O)c1sc2ccccc2c1Cl,inactive
10,CCCCCn1cnc2sc(-c3ccccc3)cc2c1=O,inactive
11,C=Cc1ccc(Cn2c(=O)n(C)c(=O)c3sccc32)cc1,"inconclusive: 11.2 µM [inhibitor, partial curve, poor fit]"
12,COc1ccc(C)cc1NC(=O)CSc1nnnn1C1CCCC1,"inconclusive: 0.794 µM [inhibitor, full curve, poor fit]"
13,Cc1sc2nc(SCC(=O)NCc3ccco3)n(CCc3ccccc3)c(=O)c2c1C,"inconclusive: 29.1 µM [inhibitor, single point]"
14,N#C/C(=C\c1ccccn1)c1ccccn1,"inconclusive: 11.2 µM [inhibitor, partial curve, poor fit]"
15,O=C(NC(=O)c1ccccc1O)c1ccc2c(c1)CCO2,"inconclusive: 15.8 µM [inhibitor, partial curve, poor fit]"
16,CCOC(=O)c1[nH]c2ccc(OC)cc2c1NC(=S)N1CCN(c2cccc(C)c2C)CC1,active: 2.24 µM
17,COc1ccc(C2(O)CCN(Cc3nnnn3Cc3ccc(C)cc3)CC2)cc1,"inconclusive: 29.1 µM [inhibitor, single point]"
18,CCOC(=O)C1CCN(c2c(C(=O)c3ccc(OCC)cc3)cnc3ccc(OC)cc23)CC1,"inconclusive: 35.5 µM [inhibitor, single point]"
19,COc1ccc(N(Cc2cc3cc(OC)ccc3[nH]c2=O)C(=O)c2cccnc2)cc1,"inconclusive: 1.26 µM [activator, single point]"
20,CCCCn1c(=O)[nH]c(=O)c2c1nc(-c1ccc(OC)c(Br)c1)n2CC(C)C,"inconclusive: 22.4 µM [inhibitor, partial curve, poor fit]"
21,Cc1noc(C)c1C(=O)NCCc1ccc(Cl)cc1,inactive
22,COc1ccc(CCNC(=O)c2ccc(OCC(=O)N3CCOCC3)c(OC)c2)cc1OC,"inconclusive: 0.708 µM [inhibitor, single point]"
23,CCc1nn2c(-c3ccccc3OC)ccnc2c1-c1ccc(F)cc1,inactive
24,CCCN(CCC)CCCNC(=O)CS(=O)Cc1nc(-c2ccc(OC)c(OC)c2)oc1C (configuration not stated),"inconclusive: 5.8 µM [activator, single point]"

# Some values from the results shown:
# Cc1noc(C)c1C(=O)NCCc1ccc(Cl)cc1 | Potency: inactive
# CCCCn1c(=O)[nH]c(=O)c2c1nc(-c1ccc(OC)c(Br)c1)n2CC(C)C | Potency: inconclusive: 22.4 µM [inhibitor, partial curve, poor fit]
# NC(=O)COC(=O)CNC(=O)c1sc2ccccc2c1Cl | Potency: inactive

# Remaining list, next part.

row,Structure (SMILES),Potency
1,CCn1c(=NC(=O)c2ccc(S(=O)(=O)N3CCCCC3)cc2)sc2cccc(OC)c21,inactive
2,CCCCCCCCCCOC(=O)NC1CCS(=O)(=O)C1 (configuration not stated),inactive
3,O=[N+]([O-])c1ccc(CNc2cccc(F)c2)s1,inactive
4,COc1ccc(C2CC(c3ccccc3)=NN2C(=O)COC(=O)C2CC2)cc1 (configuration not stated),inactive
5,CCC(NC(=O)c1ccccc1NC(=O)c1ccco1)C(=O)NNC(=O)c1ccc(OC)cc1 (configuration not stated),"inconclusive: 20.6 µM [inhibitor, partial curve, poor fit]"
6,Cc1cc(C)cc(NS(=O)(=O)c2c(C)[nH]c(=O)[nH]c2=O)c1,"inconclusive: 1.26 µM [activator, single point]"
7,O=C(NC(=O)N1CCN(c2cccc(Cl)c2)CC1)c1ccc(Cl)cc1,"inconclusive: 35.5 µM [inhibitor, single point]"
8,OC(c1ccccc1)(c1ccccc1)c1nccc2ccccc12,inactive
9,COc1ccc(S(=O)(=O)N2CCOCC2)cc1C(=O)NCc1c(C)nn(Cc2ccccc2)c1C,inactive
10,CCc1ccc(N(CC(=O)Nc2ccc(OC)cc2OC)S(C)(=O)=O)cc1,inactive
11,COc1ccc(NC(=O)Nc2cccc(Cl)c2Cl)c(OC)n1,"inconclusive: 0.562 µM [inhibitor, full curve, poor fit]"
12,COc1ccc(NC(=O)C2CCCN(C(=O)Nc3cccc(OC)c3)C2)cc1 (configuration not stated),inactive
13,Cc1cc(N2C(=O)C3C4CCC(C4)C3C2=O)no1 (configuration not stated),"inconclusive: 7.94 µM [activator, partial curve, poor fit]"
14,Cc1ccc(-n2c(SCC(=O)NCC3CCCO3)nnc2-c2ccoc2C)cc1 (configuration not stated),inactive
15,O=[N+]([O-])c1cc(S(=O)(=O)O)cc([N+](=O)[O-])c1NN(c1ccccc1)c1ccccc1,"inconclusive: 1 µM [inhibitor, full curve, poor fit]"
16,COC(=O)c1cc(=O)c2c(C)nc(C(Cl)(Cl)Cl)nc2[nH]1,inactive
17,O=c1c2ccccc2[nH]c(=S)n1Cc1ccccc1,inactive
18,CC(=O)Nc1ccc(S(=O)(=O)NN=Cc2ccc(Cl)c(Cl)c2)cc1,"inconclusive: 7.08 µM [inhibitor, partial curve, poor fit]"
19,Cn1cc(/C=C2/SC(=O)N(c3ccccc3)C2=O)c2ccccc21,"inconclusive: 10 µM [activator, partial curve]"
20,O=C1NC2(CCCCC2)N=C1c1ccc(Br)cc1,inactive
21,CS(=O)(=O)N(CC(=O)Nc1ccccc1Sc1ccccc1)c1cccc(Br)c1,inactive
22,CCc1cccc(CC)c1NC(=O)COC(=O)/C(C#N)=C/c1ccc(OC)cc1,inactive
23,Cc1ccc(C(=O)c2c(C)oc3c2C(=O)C(=O)c2ccccc2-3)cc1,active: 7.94 µM
24,Ic1ccc(N2CCN(Cc3c[nH]c4ncccc34)CC2)cc1,active: 11.2 µM

row,Structure (SMILES),Potency
1,O=[N+]([O-])c1cccc2c([As](=O)(O)O)cccc12,inactive
2,Cc1cc(C(=O)CN2C(=O)NC3(CCCCC3)C2=O)c(C)n1Cc1ccco1,"inconclusive: 31.6 µM [inhibitor, single point]"
3,CC1CCN(S(=O)(=O)c2cn(CC(=O)Nc3ccc(F)c(Cl)c3)c(=O)c3ccccc23)CC1,"inconclusive: 20 µM [inhibitor, partial curve, poor fit]"
4,O=C1CN(c2nc(-c3cccs3)nc3sc4c(c23)CCCC4)CCN1,"inconclusive: 35.5 µM [inhibitor, single point]"
5,CCCNC(=O)CN(C)S(=O)(=O)c1ccc(F)cc1,"inconclusive: 35.5 µM [activator, single point]"
6,CC(C)Oc1ccc(C(=O)Nc2nc3ccccc3[nH]2)cc1,"inconclusive: 1.12 µM [inhibitor, full curve, poor fit]"
7,CSc1ccc(CCNC(=O)c2cc(-c3ccccc3)c(N3CCOCC3)s2)cc1,"inconclusive: 2.82 µM [inhibitor, full curve]"
8,CCC(C)NC(=O)Cc1c(C)c2cc3c(cc2oc1=O)OC(C)(C)CC3 (configuration not stated),"inconclusive: 1.58 µM [activator, partial curve, poor fit]"
9,Cc1cc(C2=NNC(=NC3CC3)SC2)c(C)n1Cc1ccco1,"inconclusive: 0.708 µM [inhibitor, full curve, poor fit]"
10,O=C(COC(=O)c1cc2ccccc2o1)c1ccccc1,inactive
11,C/C(=N/NC(=O)CN1CCN(S(=O)(=O)c2ccc(Br)cc2)CC1)c1cccnc1,"inconclusive: 0.316 µM [activator, full curve]"
12,O=C(O)CCCN1C(=O)/C(=C\c2ccccc2OCc2ccccc2)SC1=S,inactive
13,CCC1=Nc2cc(C(=O)NC(C)c3ccccc3)ccc2Sc2ccc(Cl)cc21 (configuration not stated),"inconclusive: 1.78 µM [inhibitor, partial curve, poor fit]"
14,O=C1c2cccc3c(N4CCCCC4)ccc(c23)C(=O)N1c1cccc(O)c1,"inconclusive: 28.2 µM [inhibitor, single point]"
15,COc1ccc(CNc2nc(S(=O)(=O)c3ccccc3)c(Cl)s2)cc1OC,"inconclusive: 7.08 µM [inhibitor, partial curve, poor fit]"
16,CN(CCOc1ccccc1)CC(=O)Nc1ccc(Cl)c(S(=O)(=O)N(C)C)c1,"inconclusive: 12.6 µM [inhibitor, single point]"
17,Cc1cc(NC(=O)CON=C(N)CC(=O)Nc2ccccc2Cl)ccc1Br,inactive
18,CCCCN(CC)S(=O)(=O)c1ccc2c(c1)CCCN2C(C)=O,inactive
19,COc1ccc(C(=O)CSc2nnc(C3CCCCC3)n2N)c(OC)c1,"inconclusive: 14.1 µM [inhibitor, partial curve, poor fit]"
20,Cc1[nH]c2ccccc2c1C(c1ccncc1)N1CCCCC1 (configuration not stated),"inconclusive: 3.16 µM [activator, single point]"
21,O=C(CSc1nc(C(F)(F)F)cc(=O)[nH]1)Nc1ccc2c(c1)OCCO2,inactive
22,CSc1ncccc1C(=O)Nc1ccc(OC(F)(F)F)cc1,inactive
23,O=C(Nc1ccc(OC(F)(F)F)cc1)C1CCCN(S(=O)(=O)c2cccc3nonc23)C1 (configuration not stated),inactive
24,NNC(=S)NC1CCS(=O)(=O)C1 (configuration not stated),"inconclusive: 7.08 µM [activator, partial curve, poor fit]"
